# Library screen at single concentrations

Chains of the proteins cited; added tags and fusions are not shown. Residues count along the entry.
UniProt Q4DA54, 1-478: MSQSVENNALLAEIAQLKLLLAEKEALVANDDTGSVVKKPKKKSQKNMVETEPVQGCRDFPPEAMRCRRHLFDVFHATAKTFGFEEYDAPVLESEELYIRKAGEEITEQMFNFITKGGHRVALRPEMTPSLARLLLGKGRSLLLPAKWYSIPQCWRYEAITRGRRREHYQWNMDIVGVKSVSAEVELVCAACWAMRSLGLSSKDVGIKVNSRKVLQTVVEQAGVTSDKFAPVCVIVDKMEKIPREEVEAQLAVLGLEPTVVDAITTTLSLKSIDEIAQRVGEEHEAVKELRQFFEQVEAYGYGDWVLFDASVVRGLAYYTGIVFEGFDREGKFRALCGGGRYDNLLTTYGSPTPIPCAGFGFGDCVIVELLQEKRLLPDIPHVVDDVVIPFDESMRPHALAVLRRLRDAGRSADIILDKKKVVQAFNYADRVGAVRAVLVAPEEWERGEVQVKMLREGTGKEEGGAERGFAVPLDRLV

Source: ChEMBL document CHEMBL3988442, “University of Dundee, Small-Polar-MMV Screening Library” (2021).

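Histidine-tRNA ligase, Trypanosoma cruzi CL Brener (UniProt Q4DA54). Enzyme assay of histidyl-tRNA synthetase; the read-out is not stated. Concentration: 30 µM. Higher reads as stronger inhibition (inferred: compounds with an IC50 in retests scored well above the rest). Size under these conditions: about 69,000 compounds, about 31 of them at 50% or above in at least one test.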

Results are given as percent effect.
How 0% and 100% were set is not recorded. Most values in the screen are low, and negative values occur.
Compounds were drawn at random from those tested, without regard to their results.

For COc1cc(C)c(-c2ccc(F)c3c2OC(CN)C3)cc1C (stereo not given) the result was 27.66%. Result for Cc1cc(C)c(C)c(OCCCNC(=O)NC(C)c2nncn2C)c1 (stereo not given) was 0%. With CNC(=O)c1ccc(C(=O)N2CCCC(n3cc(C)cn3)C2)cn1 (stereo not given) the screen gave 0%. Cn1nnc2c1CCN(Cc1ccccn1)C2COCc1ccccc1 (stereo not given) read 5.102%. NC(=O)CN1CCCN(C(=O)COc2cccc(F)c2)CC1 read 7.317%. Result for O=C(c1ncn2c1CNS(=O)(=O)c1ccccc1-2)N1CCOCC1 was -0.5348%.

CC(C)n1ccnc1C1CCN(Cc2ccc(Cl)s2)CC1 read 4.184%. CCN1CCC(CC(=O)N[C@H](C(=O)O)c2cccc(F)c2F)CC1 gave 5.102%. O=C(NCCn1ccnc1)c1cc(F)cc(Br)c1 read 5.195%. Result for CC(=O)NCC1CCN(C(=O)c2c(C)[nH]c3ccc(Cl)cc23)CC1 was 3.333%. For CCN(CC)S(=O)(=O)c1ccc(C(=O)NC(C)(C#N)C2CC2)cc1 (stereo not given) the result was -0.4425%. With CCn1ccnc1CN1CCCN(C(=O)c2ccnc(C)n2)CC1 the screen gave 4.118%.

CCc1nc(C2CCCN(C(=O)c3ccccc3Cl)C2)no1 (stereo not given) gave 7.018%. For CCc1nc(C2CCCN2CCCS(N)(=O)=O)no1 (stereo not given) the result was 2.639%. For COc1cc(C)c(C(C)NC(=O)NCCCn2cncn2)cc1OC (stereo not given) the result was 0.5764%. For CCc1oc(C(=O)NCCSc2ncn[nH]2)cc1CN1CCCC1 the result was 4.478%. CC(C)CC(=O)N1CC[C@@H]2CN(Cc3cccnc3)S(=O)(=O)[C@@H]2CC1 read 3.175%. Result for CCN1C[C@H]2CCN(c3ncccn3)CC[C@H]2S1(=O)=O was 4.478%.

CN(C)C(=O)N1CCN(c2ccc3ccc(C(=O)NC4CC4)cn23)CC1 gave 36.89%. For N#Cc1ccc(OC2CCN(C(=O)COCC3CCCO3)CC2)cc1 (stereo not given) the result was 1.587%. For OCCC1(NCc2ccc(-n3cccn3)cc2)CCOCC1 the result was 2.646%. For Cc1cccc(OC2CCN(Cc3ncc[nH]3)CC2)c1 the result was 2.609%. For CN1CC(=O)N(c2ccccc2)CC12CCN(CCO)C2 (stereo not given) the result was 2.4%. For O=C(CCNC(=O)c1sccc1-c1ccccc1)NC1CCS(=O)(=O)C1 (stereo not given) the result was 2.116%.

CCn1nc(C)cc1C(=O)OCCNC(=O)c1ccccc1 read -1.02%. CCc1nc(CNc2nc3c(s2)c(C)nn3C)cs1 read 0%. Result for COCCC(C)NC(=O)Nc1ccc(N2CCOC2=O)c(OC)c1 (stereo not given) was 3.804%. O=C(CC[C@@H]1CCCN2CCCC[C@H]12)N1CCC(c2nnc[nH]2)CC1 read 1.293%. For O=C(c1cc(CC2(NCC3CCCCC3)COC2)no1)N1CCCCC1 the result was 4.95%. O=C(c1ccccn1)N1CCc2c(nc(-c3ccncc3)[nH]c2=O)C1 gave 6.931%.

For CC1CN(CC(=O)Nc2ccncc2)CCN1c1nccs1 (stereo not given) the result was -5.814%. For CCN(C)CC1CCN(C(=O)NCCC2Cc3ccccc3C2)C1 (stereo not given) the result was 2.353%. Result for CNC(=O)c1cnn2c(C3CCCN3)ccnc12 (stereo not given) was -12.41%. COCC(=O)NC1CCCN(c2ccc(C)cc2)C1=O (stereo not given) gave 4.972%. For N#Cc1ccnc(N2CCC(c3nccn3Cc3cscn3)CC2)c1 the result was -1.245%. Cc1cccc(CS(=O)(=O)CC(=O)NCCCOC(C)C)c1 gave -2.29%.

CCCN(CCc1ccccc1)c1ncnc2oc(C)nc12 gave 4.255%. With Nc1nc2c(c(N3CCC(CCn4cccn4)CC3)n1)CCNCC2 the screen gave 5.682%. Cc1nc(CN[C@H]2CCCN(C(=O)OC(C)(C)C)C2)cs1 read -1.266%. For O=C(c1ccsc1)N1CCC(c2nnc(C3CC3)o2)CC1 the result was 9%. CC1(C)CNC(=O)CN(C(=O)Cc2ccccc2)C1 read 3.468%. O=C(CNc1cc2c(cc1Cl)OCCCO2)NCc1ccc(F)cc1 gave 1.058%.

With COC(=O)c1sccc1S(=O)(=O)N1CCc2c(ncnc2N(C)C)C1 the screen gave 7.071%. With Cn1cnc(S(=O)(=O)NCC2(O)CCOc3ccccc32)c1 (stereo not given) the screen gave 4.444%. For CC(C)Nc1ccc2nc(C3CCN(C(C)C)CC3)nn2c1 the result was 3.743%. Result for c1cncc(N2CCOCC3(CN(Cc4cccs4)CCO3)C2)c1 (stereo not given) was 6.863%. With CCN(CCCNc1ncnc2cc(F)c(F)cc12)S(C)(=O)=O the screen gave 3.665%. With Cc1ccccc1C(=O)N1CCC2(CCCN2CCN(C)C)CC1 the screen gave 0.4808%.

CCOCC(O)CN1CCN(C(=O)C2CCCC2)CC1 (stereo not given) gave -10.76%. For CC(C)Oc1ncccc1CNC(=O)NC1CCOc2ccccc21 (stereo not given) the result was 2.312%. With O=C([C@@H]1COC[C@H]2CN(C3CCOCC3)C[C@H]21)N1CCCO1 the screen gave 6.468%. Cc1ccc(CNCCN2CCOCC2)o1 gave 11.65%. Result for CCCc1nc(CN2CCc3c(ncn3C3CC3)C2)cs1 was 11.43%. For O=C(CCc1nc(-c2ccccc2)no1)N[C@H]1COC[C@@H]1N1CCCC1 the result was 4.741%.

CCCOCCN1CCc2[nH]c(-c3ccccc3)nc2C1 gave 1.093%. CN(C)CCN(Cc1cccc(F)c1)C(=O)c1ccc2nccn2c1 read 9.202%. Result for CCn1nc(C)cc1S(=O)(=O)N1CCC2(CCCN(C(C)C)C2=O)C1 (stereo not given) was 6.897%. For Cc1noc(C)c1-c1ccc(C2CCCN2C(=O)c2cccnn2)nc1 (stereo not given) the result was 1.493%.

Repeated from the top, 7 entries:

| compound | percent effect |
|---|---|
| `COc1cc(C)c(-c2ccc(F)c3c2OC(CN)C3)cc1C` (stereo not given) | 27.66 |
| `Cc1cc(C)c(C)c(OCCCNC(=O)NC(C)c2nncn2C)c1` (stereo not given) | 0 |
| `CNC(=O)c1ccc(C(=O)N2CCCC(n3cc(C)cn3)C2)cn1` (stereo not given) | 0 |
| `Cn1nnc2c1CCN(Cc1ccccn1)C2COCc1ccccc1` (stereo not given) | 5.102 |
| `NC(=O)CN1CCCN(C(=O)COc2cccc(F)c2)CC1` | 7.317 |
| `O=C(c1ncn2c1CNS(=O)(=O)c1ccccc1-2)N1CCOCC1` | -0.5348 |
| `CC(C)n1ccnc1C1CCN(Cc2ccc(Cl)s2)CC1` | 4.184 |